From the supplement of paper PMC6078165

Tested on: HCC1143
Assay: relative JC-1 red fluorescence (viability) vs pre-drug, coculture with fibroblast (fraction); higher = more viable cancer cells
Procedure: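 JC-1 labelled TNBC cells cocultured 1:1 (1,500 cells each) with CellTrace Violet stained primary or stromal fibroblasts in 384-well plates in FluoroBrite medium, treated with one of 42 anticancer drugs at 0.1, 1, 10 or 100 uM. JC-1 red fluorescence (mitochondrial integrity in cancer cells only) was read by plate reader every 8 h for 72 h. Values are normalised to each well's pre-drug value. The stock of one drug was tenfold lower, so its dose labels may be too high.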

C#Cc1cccc(Nc2ncnc3cc(OCCOC)c(OCCOC)cc23)c1 [Erlotinib]
relative JC-1 red fluorescence
Conditions	8 h	16 h	24 h	32 h	40 h	48 h	56 h	64 h	72 h
0.1 µM, coculture fibroblast: C12385	0.88	0.796	0.728	0.656	0.575	0.514	0.461	0.428	0.41
0.1 µM, coculture fibroblast: H6013	0.726	0.642	0.601	0.588	0.501	0.488	0.4519	0.435	0.408
0.1 µM, coculture fibroblast: H6019	0.7932	0.716	0.663	0.589	0.547	0.508	0.452	0.405	0.368
0.1 µM, coculture fibroblast: H6076	0.8335	0.794	0.761	0.718	0.685	0.677	0.653	0.626	0.645
0.1 µM, coculture fibroblast: H6231	0.822	0.837	0.757	0.644	0.642	0.611	0.564	0.529	0.499
0.1 µM, coculture fibroblast: HADF	0.7189	0.62	0.579	0.592	0.482	0.463	0.429	0.402	0.386
0.1 µM, coculture fibroblast: HCFa	0.756	0.672	0.635	0.622	0.523	0.494	0.448	0.415	0.399
0.1 µM, coculture fibroblast: HCPF	0.7762	0.793	0.721	0.6	0.623	0.591	0.5469	0.5072	0.4882
0.1 µM, coculture fibroblast: HHSteC	0.8147	0.7205	0.693	0.649	0.571	0.54	0.497	0.474	0.446
0.1 µM, coculture fibroblast: HMF	0.797	0.829	0.771	0.659	0.677	0.648	0.605	0.574	0.545
0.1 µM, coculture fibroblast: HPFa	0.9315	0.857	0.812	0.7374	0.682	0.637	0.57	0.508	0.464
0.1 µM, coculture fibroblast: HUF	0.88	0.795	0.756	0.69	0.652	0.619	0.574	0.544	0.515
0.1 µM, coculture fibroblast: Hs5	0.84	0.856	0.793	0.7435	0.6952	0.66	0.625	0.588	0.574
0.1 µM, coculture fibroblast: Hs27A	0.721	0.645	0.609	0.629	0.506	0.485	0.432	0.398	0.376
0.1 µM, coculture fibroblast: Hs343T	0.8156	0.851	0.769	0.66	0.659	0.626	0.578	0.554	0.526
0.1 µM, coculture fibroblast: WS1	0.867	0.79	0.764	0.715	0.678	0.636	0.595	0.562	0.546
1 µM, coculture fibroblast: C12385	0.839	0.78	0.726	0.659	0.488	0.447	0.415	0.389	0.385
1 µM, coculture fibroblast: H6013	0.7444	0.673	0.632	0.618	0.563	0.569	0.541	0.533	0.5
1 µM, coculture fibroblast: H6019	0.837	0.799	0.77	0.725	0.688	0.666	0.622	0.581	0.5456
1 µM, coculture fibroblast: H6076	0.8188	0.845	0.8185	0.755	0.732	0.697	0.657	0.6428	0.6444
1 µM, coculture fibroblast: H6231	0.828	0.8736	0.812	0.647	0.719	0.682	0.644	0.601	0.561
1 µM, coculture fibroblast: HADF	0.7	0.643	0.613	0.626	0.527	0.494	0.456	0.429	0.417
1 µM, coculture fibroblast: HCFa	0.785	0.729	0.691	0.684	0.598	0.566	0.518	0.481	0.46
1 µM, coculture fibroblast: HCPF	0.796	0.831	0.791	0.6619	0.709	0.669	0.636	0.608	0.595
1 µM, coculture fibroblast: HHSteC	0.834	0.784	0.7503	0.729	0.663	0.638	0.601	0.572	0.536
1 µM, coculture fibroblast: HMF	0.789	0.85059	0.7894	0.658	0.702	0.663	0.622	0.601	0.571
1 µM, coculture fibroblast: HPFa	0.9059	0.849	0.832	0.746	0.698	0.66	0.599	0.558	0.518
1 µM, coculture fibroblast: HUF	0.874	0.8	0.749	0.675	0.635	0.596	0.545	0.51	0.484
1 µM, coculture fibroblast: Hs5	0.8363	0.827	0.801	0.7679	0.6992	0.673	0.64	0.625	0.6
1 µM, coculture fibroblast: Hs27A	0.704	0.639	0.597	0.612	0.482	0.46	0.413	0.382	0.373
1 µM, coculture fibroblast: Hs343T	0.808	0.832	0.779	0.701	0.704	0.67	0.627	0.611	0.586
1 µM, coculture fibroblast: WS1	0.839	0.779	0.731	0.651	0.593	0.539	0.495	0.452	0.424
10 µM, coculture fibroblast: C12385	0.882	0.833	0.769	0.712	0.649	0.617	0.588	0.559	0.537
10 µM, coculture fibroblast: H6013	0.771	0.713	0.68	0.678	0.593	0.589	0.558	0.549	0.547
10 µM, coculture fibroblast: H6019	0.833	0.7702	0.722	0.655	0.609	0.5825	0.54494	0.518	0.49
10 µM, coculture fibroblast: H6076	0.814	0.8661	0.841	0.748	0.77	0.755	0.723	0.697	0.694
10 µM, coculture fibroblast: H6231	0.832	0.889	0.836	0.661	0.755	0.722	0.694	0.65	0.612
10 µM, coculture fibroblast: HADF	0.719	0.654	0.631	0.669	0.565	0.534	0.514	0.496	0.54
10 µM, coculture fibroblast: HCFa	0.774	0.706	0.685	0.698	0.596	0.561	0.527	0.494	0.511
10 µM, coculture fibroblast: HCPF	0.8016	0.873	0.8437	0.684	0.76297	0.7265	0.6992	0.657	0.646
10 µM, coculture fibroblast: HHSteC	0.851	0.794	0.779	0.7782	0.696	0.662	0.636	0.62	0.615
10 µM, coculture fibroblast: HMF	0.7925	0.841	0.802	0.667	0.6956	0.674	0.632	0.608	0.585
10 µM, coculture fibroblast: HPFa	0.94783	0.8693	0.831	0.7371	0.686	0.656	0.5976	0.5632	0.5255
10 µM, coculture fibroblast: HUF	0.912	0.84	0.799	0.731	0.691	0.659	0.597	0.548	0.527
10 µM, coculture fibroblast: Hs5	0.8652	0.934	0.893	0.825	0.79	0.7637	0.735	0.706	0.694
10 µM, coculture fibroblast: Hs27A	0.72	0.66	0.621	0.66	0.526	0.494	0.462	0.438	0.491
10 µM, coculture fibroblast: Hs343T	0.808	0.884	0.843	0.701	0.755	0.7291	0.685	0.665	0.633
10 µM, coculture fibroblast: WS1	0.873	0.825	0.781	0.72	0.674	0.636	0.589	0.557	0.529
100 µM, coculture fibroblast: C12385	0.878	0.8448	0.7883	0.748	0.689	0.6582	0.65	0.62	0.6142
100 µM, coculture fibroblast: H6013	0.826	0.765	0.7284	0.734	0.656	0.6576	0.6434	0.633	0.655
100 µM, coculture fibroblast: H6019	0.905	0.885	0.875	0.836	0.834	0.851	0.847	0.849	0.836
100 µM, coculture fibroblast: H6076	0.834	0.815	0.7969	0.763	0.734	0.725	0.717	0.718	0.742
100 µM, coculture fibroblast: H6231	0.834	0.899	0.85	0.705	0.76	0.723	0.69	0.658	0.646
100 µM, coculture fibroblast: HADF	0.776	0.7379	0.7143	0.7546	0.6433	0.617	0.5964	0.583	0.648
100 µM, coculture fibroblast: HCFa	0.847	0.829	0.8112	0.813	0.72	0.701	0.67	0.64	0.652
100 µM, coculture fibroblast: HCPF	0.856	0.943	0.914	0.732	0.832	0.778	0.754	0.724	0.714
100 µM, coculture fibroblast: HHSteC	0.907	0.865	0.851	0.827	0.762	0.7452	0.7224	0.703	0.678
100 µM, coculture fibroblast: HMF	0.831	0.901	0.85	0.729	0.77	0.733	0.7	0.677	0.654
100 µM, coculture fibroblast: HPFa	0.907	0.849	0.83	0.748	0.717	0.709	0.672	0.658	0.643
100 µM, coculture fibroblast: HUF	0.952	0.892	0.859	0.777	0.73	0.703	0.67	0.649	0.622
100 µM, coculture fibroblast: Hs5	0.875	0.948	0.939	0.8925	0.8658	0.831	0.809	0.791	0.774
100 µM, coculture fibroblast: Hs27A	0.8027	0.777	0.74	0.79	0.664	0.664	0.64	0.629	0.667
100 µM, coculture fibroblast: Hs343T	0.8325	0.885	0.838	0.734	0.757	0.728	0.693	0.672	0.646
100 µM, coculture fibroblast: WS1	0.893	0.848	0.817	0.762	0.736	0.7	0.657	0.636	0.614

Values are relative to the signal before dosing, not to a vehicle control; the signal also falls without drug.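 Fibroblast labels denote human fibroblasts, mainly primary ones from uterus (C12385, HUF), lung (H6013), bone (Hs27A), adrenal (HADF) and skin (WS1), plus mammary HMF and breast cancer-associated Hs343T. Cancer cells are basal-like or mesenchymal-like triple-negative breast cancer lines. A hit is a response shift exceeding 3x replicate standard deviation. The tissue of the other fibroblasts is not given here.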
